Results are given in words; binding and its absence hold for the method and conditions named.
Experiments:
Assay in all cases: SEC-MALS; Superdex 75 10/300 in 20 mM Tris-HCl pH 7.4, 150 mM NaCl, 1.93 mM β-mercaptoethanol, room temperature; 500 µl of each protein loaded at 50 or 100 µM as indicated; detectors at 25°C; both purified
EEA1 1347–1411 = EEA1 1347–1411 (UniProt Q15075)
[1] = target: Pib2 437–542 (S. cerevisiae) (UniProt P53191)
[2] = target: Pib2 419–625 (S. cerevisiae) (UniProt P53191)
[3] = target: Pib2 442–625 (S. cerevisiae) (UniProt P53191)

By UniProt entry, the sequences of proteins in these tests, tags left out. Residues count along the entry.
UniProt Q15075, residues 1347-1411: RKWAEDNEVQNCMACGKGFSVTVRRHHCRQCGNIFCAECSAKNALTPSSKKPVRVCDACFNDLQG

Question: “EEA1 1347–1411 (from UniProt Q15075 1347-1411) (domain or fragment)” was tested. Which binding (EEA1 1347–1411) did it give?
Answer: no binding (tested: 50 or 100 µM loaded, as indicated)

B1: Pib2 437–542 (domain or fragment, UniProt P53191 437-542)
chain: NSARVNPPTKDHWIPDSKRNSCRYCHKPFTLWERKHHCRHCGDIFCQDHLRHWLYLDSQANFIMINELNNGGINGGGTLCKICDDCLVEYENLSTTNHNANTNEDN
Question: For B1, which binding [1] is on record?
Answer: no binding (tested: 50 or 100 µM loaded, as indicated)

B2: Pib2 419–625 (domain or fragment, UniProt P53191 419-625)
chain: NSIPNSDRINLIPTISNRNSARVNPPTKDHWIPDSKRNSCRYCHKPFTLWERKHHCRHCGDIFCQDHLRHWLYLDSQANFIMINELNNGGINGGGTLCKICDDCLVEYENLSTTNHNANTNEDNINVEEGEDDDNDNRKKLRNYYKNRQMNALFRPKKGGSSQEHATVDRDTTTPIQVKSNDEEADNENTGGEQEEGNDVLGSVIGS
Question: How did the binding [2] turn out when B2 was run?
Answer: no binding (tested: 50 or 100 µM loaded, as indicated)

B3: Pib2 442–625 (domain or fragment, UniProt P53191 442-625)
chain: NPPTKDHWIPDSKRNSCRYCHKPFTLWERKHHCRHCGDIFCQDHLRHWLYLDSQANFIMINELNNGGINGGGTLCKICDDCLVEYENLSTTNHNANTNEDNINVEEGEDDDNDNRKKLRNYYKNRQMNALFRPKKGGSSQEHATVDRDTTTPIQVKSNDEEADNENTGGEQEEGNDVLGSVIGS
Question: B3 was tested. Which binding [3] did it give?
Answer: no binding (tested: 50 or 100 µM loaded, as indicated)
